Data published in publication PMC5401885, “Isoprenoid Pyrophosphate-Dependent Transcriptional Regulation of Carotenogenesis in Corynebacterium glutamicum” (Frontiers in Microbiology, 2017).
Construct, isoform or probe ends are uncertain for at least one entry. A weaker result is weaker than the reference pair of the same experiment. Protein sequences can lack the tags named with them.

Target: T1, CrtR (His-tagged) (Corynebacterium glutamicum ATCC 13032) (UniProt Q8NSP1)
T1 sequence (looked up): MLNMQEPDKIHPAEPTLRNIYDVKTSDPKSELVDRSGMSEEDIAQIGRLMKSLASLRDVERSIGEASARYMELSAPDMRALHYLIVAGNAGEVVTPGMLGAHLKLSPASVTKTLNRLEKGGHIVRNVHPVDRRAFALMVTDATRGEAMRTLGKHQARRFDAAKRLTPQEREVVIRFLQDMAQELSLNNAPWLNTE
Assay: EMSA
Details: 30-fold molar excess CrtR, 50 mM Tris-HCl pH 7.5, 10% glycerol, 50 mM KCl, 10 mM MgCl2, 0.5 mM EDTA, 20 uL, 90 ng DNA, 30 min at room temperature, 6% DNA retardation gel, recombinant protein, residues 1-195, protein details: N-terminal decahistidine (pET16b), not removed, label: none (ethidium bromide stain), probe letters rebuilt from the primers and the genome

Measured: binding result

ATTCAGCATAGTAATCACCTTTTTCTACAAAGTCAGATAAAGTTTATTTTTAAAAATATTAACTCATGGGATACTATAAATTTCTTGTAGGCACATTATTTTTATGGACCCAAATTCACACTTTCTGTACTTCATCAAAATAAAGCGCCATATACAACGATTGGGAATTTTTGCGAGATAACTGGCCGTGTGATACTCGA (double strand) [fragment A (full crtE-crtR intergenic region)]
binds more weakly: 50 uM GGPP | DMAPP (5-fold higher concentration than GGPP) | FPP (5-fold higher concentration than GGPP) | GPP (5-fold higher concentration than GGPP) | IPP (5-fold higher concentration than GGPP)
